{"sequences": {"note": "The chains behind the UniProt entries cited, without tags or fusion partners. Where a name states a change or a piece, a line headed by the entry shows the natural chain unless it says otherwise.", "UniProt Q93008, whole entry, looked up": "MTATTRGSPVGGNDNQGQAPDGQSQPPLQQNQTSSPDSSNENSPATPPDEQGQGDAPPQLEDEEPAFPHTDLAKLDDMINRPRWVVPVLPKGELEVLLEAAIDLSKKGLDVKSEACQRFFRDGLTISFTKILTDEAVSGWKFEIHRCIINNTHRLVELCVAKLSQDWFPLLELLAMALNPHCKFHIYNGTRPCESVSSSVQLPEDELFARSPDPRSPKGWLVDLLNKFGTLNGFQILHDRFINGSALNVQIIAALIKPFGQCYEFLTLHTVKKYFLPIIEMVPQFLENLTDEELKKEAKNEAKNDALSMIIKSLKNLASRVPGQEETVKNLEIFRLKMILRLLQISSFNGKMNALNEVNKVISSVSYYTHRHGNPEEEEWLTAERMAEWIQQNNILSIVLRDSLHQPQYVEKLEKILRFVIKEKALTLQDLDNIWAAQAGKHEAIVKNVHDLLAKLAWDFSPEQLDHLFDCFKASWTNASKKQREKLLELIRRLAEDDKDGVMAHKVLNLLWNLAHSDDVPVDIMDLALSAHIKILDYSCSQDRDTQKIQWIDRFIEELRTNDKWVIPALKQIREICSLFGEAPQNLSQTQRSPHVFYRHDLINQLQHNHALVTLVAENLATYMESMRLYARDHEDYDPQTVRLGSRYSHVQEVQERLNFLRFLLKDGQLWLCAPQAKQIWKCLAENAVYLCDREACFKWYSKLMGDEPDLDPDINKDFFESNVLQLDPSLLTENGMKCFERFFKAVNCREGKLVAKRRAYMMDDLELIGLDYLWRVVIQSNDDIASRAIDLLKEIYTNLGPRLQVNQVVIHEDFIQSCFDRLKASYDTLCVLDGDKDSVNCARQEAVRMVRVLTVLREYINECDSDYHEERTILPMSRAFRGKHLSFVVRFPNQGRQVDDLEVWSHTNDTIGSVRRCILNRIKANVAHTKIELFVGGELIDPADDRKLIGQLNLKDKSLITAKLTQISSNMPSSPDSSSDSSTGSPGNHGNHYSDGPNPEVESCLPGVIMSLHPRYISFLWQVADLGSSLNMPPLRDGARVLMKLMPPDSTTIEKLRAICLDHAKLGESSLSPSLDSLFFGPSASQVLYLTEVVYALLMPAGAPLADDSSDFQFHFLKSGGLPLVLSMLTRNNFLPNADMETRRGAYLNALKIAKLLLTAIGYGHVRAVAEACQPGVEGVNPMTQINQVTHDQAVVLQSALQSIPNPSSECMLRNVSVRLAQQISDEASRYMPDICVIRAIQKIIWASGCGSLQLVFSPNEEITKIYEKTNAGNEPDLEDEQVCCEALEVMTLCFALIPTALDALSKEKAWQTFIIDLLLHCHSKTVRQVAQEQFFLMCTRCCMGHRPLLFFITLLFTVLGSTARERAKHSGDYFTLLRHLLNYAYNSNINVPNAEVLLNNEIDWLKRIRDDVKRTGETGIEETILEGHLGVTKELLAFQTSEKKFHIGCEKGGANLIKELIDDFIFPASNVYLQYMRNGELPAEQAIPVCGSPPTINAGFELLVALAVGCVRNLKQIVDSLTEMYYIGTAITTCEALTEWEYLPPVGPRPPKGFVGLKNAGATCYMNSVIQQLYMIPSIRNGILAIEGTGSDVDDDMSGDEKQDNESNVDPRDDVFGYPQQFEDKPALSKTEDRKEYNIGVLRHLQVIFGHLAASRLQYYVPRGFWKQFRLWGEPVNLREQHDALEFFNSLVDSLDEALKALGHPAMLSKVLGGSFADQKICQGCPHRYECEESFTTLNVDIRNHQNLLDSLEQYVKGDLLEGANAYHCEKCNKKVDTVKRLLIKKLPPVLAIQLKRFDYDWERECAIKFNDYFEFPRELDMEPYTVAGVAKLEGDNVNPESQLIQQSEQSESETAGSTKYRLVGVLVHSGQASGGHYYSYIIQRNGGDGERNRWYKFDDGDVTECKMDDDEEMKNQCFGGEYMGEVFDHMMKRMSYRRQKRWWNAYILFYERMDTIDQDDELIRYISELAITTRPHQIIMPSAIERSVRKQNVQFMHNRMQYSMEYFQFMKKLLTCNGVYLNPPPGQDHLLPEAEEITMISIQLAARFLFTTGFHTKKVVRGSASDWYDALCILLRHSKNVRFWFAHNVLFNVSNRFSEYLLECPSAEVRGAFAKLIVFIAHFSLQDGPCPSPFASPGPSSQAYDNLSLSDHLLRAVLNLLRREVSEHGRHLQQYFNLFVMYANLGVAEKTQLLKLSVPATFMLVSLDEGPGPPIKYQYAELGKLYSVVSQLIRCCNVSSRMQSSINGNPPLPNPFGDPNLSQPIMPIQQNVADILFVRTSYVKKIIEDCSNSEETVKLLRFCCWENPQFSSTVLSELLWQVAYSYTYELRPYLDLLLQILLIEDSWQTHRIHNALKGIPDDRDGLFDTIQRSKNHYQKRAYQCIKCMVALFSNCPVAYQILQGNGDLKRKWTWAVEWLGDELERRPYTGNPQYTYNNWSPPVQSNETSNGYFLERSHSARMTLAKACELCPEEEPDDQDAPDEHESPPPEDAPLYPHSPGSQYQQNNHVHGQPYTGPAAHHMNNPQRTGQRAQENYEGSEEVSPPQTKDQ", "UniProt Q92547, whole entry": "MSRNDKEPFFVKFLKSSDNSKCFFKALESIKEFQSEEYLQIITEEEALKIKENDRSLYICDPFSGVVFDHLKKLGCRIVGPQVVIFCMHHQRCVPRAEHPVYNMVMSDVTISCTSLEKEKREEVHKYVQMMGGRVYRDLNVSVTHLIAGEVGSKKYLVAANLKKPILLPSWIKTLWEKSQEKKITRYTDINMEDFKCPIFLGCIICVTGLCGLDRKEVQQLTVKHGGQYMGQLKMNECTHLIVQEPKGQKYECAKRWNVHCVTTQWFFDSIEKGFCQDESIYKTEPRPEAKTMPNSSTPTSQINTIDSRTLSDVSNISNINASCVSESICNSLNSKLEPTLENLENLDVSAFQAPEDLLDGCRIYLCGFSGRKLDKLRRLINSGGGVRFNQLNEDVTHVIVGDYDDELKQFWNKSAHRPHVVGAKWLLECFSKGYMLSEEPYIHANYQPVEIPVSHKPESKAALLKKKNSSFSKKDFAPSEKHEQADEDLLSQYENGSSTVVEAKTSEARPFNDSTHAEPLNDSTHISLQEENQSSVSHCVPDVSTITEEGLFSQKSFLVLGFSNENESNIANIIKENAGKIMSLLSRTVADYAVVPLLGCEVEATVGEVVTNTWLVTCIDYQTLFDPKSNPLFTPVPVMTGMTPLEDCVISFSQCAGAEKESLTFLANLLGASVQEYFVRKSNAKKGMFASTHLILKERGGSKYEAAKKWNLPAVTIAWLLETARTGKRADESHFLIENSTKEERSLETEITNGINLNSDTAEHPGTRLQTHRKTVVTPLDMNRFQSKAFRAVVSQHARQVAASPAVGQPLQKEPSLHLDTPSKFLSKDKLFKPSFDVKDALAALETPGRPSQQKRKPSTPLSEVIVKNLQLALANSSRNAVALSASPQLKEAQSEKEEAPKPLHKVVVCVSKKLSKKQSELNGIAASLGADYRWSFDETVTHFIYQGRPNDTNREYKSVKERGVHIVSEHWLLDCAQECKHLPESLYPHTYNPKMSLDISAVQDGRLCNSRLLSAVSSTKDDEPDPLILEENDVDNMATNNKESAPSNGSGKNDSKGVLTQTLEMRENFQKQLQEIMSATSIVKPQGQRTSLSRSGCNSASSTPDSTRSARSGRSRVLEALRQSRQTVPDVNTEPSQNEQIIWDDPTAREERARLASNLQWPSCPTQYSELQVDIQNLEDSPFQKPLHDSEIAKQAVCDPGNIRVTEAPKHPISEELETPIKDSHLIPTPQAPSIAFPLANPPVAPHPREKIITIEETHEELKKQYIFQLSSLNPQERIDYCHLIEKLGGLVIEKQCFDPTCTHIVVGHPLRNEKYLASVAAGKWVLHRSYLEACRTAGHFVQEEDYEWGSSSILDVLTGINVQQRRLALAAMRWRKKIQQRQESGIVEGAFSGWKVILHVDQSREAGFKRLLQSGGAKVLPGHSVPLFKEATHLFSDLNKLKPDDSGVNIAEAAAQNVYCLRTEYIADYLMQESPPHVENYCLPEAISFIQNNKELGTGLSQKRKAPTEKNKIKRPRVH", "UniProt Q92597": "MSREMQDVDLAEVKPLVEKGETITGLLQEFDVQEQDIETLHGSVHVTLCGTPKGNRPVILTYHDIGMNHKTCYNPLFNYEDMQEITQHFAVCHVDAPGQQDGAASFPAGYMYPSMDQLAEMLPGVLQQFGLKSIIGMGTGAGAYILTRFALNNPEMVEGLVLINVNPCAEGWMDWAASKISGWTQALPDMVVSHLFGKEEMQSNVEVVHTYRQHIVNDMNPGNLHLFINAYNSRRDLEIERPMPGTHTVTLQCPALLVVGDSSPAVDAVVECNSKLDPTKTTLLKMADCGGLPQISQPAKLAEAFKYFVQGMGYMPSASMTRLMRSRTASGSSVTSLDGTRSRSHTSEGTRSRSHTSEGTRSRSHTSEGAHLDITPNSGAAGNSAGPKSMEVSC", "UniProt Q96GD0": "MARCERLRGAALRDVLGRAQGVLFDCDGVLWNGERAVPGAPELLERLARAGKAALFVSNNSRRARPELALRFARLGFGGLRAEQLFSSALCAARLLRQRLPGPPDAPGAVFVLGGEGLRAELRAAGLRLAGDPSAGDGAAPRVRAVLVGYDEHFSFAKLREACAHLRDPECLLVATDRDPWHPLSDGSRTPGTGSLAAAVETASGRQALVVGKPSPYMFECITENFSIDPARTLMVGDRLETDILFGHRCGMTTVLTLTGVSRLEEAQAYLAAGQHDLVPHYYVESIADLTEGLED", "UniProt Q96GQ7": "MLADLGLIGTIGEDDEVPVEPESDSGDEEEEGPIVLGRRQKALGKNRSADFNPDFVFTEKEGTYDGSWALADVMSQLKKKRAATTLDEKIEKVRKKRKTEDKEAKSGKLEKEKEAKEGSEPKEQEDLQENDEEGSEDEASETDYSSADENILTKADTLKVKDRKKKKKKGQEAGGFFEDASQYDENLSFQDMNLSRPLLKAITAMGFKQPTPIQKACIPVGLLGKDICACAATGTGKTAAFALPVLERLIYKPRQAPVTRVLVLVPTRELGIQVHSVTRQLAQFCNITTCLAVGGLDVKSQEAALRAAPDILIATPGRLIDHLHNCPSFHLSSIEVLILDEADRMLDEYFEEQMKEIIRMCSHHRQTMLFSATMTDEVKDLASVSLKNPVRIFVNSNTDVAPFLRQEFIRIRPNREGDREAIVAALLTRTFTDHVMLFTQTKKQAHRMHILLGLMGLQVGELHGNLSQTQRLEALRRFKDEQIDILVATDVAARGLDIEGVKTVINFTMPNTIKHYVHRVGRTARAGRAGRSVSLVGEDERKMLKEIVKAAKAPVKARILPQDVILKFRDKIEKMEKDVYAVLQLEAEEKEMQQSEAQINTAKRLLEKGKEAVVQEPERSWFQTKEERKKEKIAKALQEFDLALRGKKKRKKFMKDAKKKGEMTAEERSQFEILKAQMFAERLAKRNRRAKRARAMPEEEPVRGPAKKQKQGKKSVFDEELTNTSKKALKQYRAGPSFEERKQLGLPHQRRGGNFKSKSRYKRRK", "UniProt Q96GX9": "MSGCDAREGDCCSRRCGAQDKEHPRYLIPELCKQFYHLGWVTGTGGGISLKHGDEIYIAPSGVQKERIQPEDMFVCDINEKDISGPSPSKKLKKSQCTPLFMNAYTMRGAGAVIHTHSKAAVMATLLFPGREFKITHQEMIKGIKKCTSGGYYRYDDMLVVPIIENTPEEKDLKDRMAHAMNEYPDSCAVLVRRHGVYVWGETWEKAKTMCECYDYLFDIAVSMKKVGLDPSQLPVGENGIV", "UniProt Q96AB3": "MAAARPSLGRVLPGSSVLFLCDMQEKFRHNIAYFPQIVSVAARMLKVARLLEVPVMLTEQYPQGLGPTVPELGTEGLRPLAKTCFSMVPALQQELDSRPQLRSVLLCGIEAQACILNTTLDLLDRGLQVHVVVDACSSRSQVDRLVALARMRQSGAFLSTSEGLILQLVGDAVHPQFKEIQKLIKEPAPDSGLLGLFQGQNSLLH", "UniProt Q92696": "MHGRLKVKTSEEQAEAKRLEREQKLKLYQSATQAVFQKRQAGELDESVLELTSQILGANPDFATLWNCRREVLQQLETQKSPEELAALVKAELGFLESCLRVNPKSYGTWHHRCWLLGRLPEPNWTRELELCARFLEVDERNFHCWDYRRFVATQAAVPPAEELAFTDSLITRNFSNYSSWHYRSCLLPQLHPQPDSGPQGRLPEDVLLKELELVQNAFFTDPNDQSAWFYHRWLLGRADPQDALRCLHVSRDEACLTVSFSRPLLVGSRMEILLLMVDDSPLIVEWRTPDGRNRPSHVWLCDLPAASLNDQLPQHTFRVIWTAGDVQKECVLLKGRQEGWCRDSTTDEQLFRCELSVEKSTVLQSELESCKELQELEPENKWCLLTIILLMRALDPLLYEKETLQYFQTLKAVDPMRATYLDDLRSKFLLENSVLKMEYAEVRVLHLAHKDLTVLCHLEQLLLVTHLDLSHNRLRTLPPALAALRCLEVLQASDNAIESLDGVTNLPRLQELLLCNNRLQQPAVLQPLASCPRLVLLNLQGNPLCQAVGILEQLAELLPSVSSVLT"}, "source": "the supplement of paper PMC11006884", "note": "This is a selection; strong and weak results do not stand in their true shares.", "data": [{"compound": "COC(=O)C#Cc1ccccc1 [methyl 3-phenylpropiolate]", "experiment": "log2 ratio of iodoacetamide-alkyne labeling of the cysteine site, DMSO over compound (competition); higher = stronger covalent engagement of the cysteine by the compound, active = 1 or more", "details": "500 µM; treatment time 1 h; system: HEK293T cell lysate", "summary_of_the_method": "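Electrophile (500 µM) or vehicle was added to HEK293T lysate (2 mg/mL) for 1 h at ambient temperature before iodoacetamide alkyne labelling (1 h) and click coupling to sCIP-TMT reagents. After pooling, overnight trypsin digestion at 37 °C, streptavidin enrichment and acid elution, peptides were measured by Orbitrap Eclipse LC-MS/MS with FAIMS and quantified in FragPipe. Each cysteine's log2 competition ratio compares mean control-channel with mean compound-channel reporter intensity, control over compound. Data came from duplicate channels across three replicates, excluding cysteines quantified in only one replicate.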", "values": [{"target": "UniProt Q96BD8_C10", "log2 ratio of iodoacetamide-alkyne labeling": "inactive: 0.363"}, {"target": "AKAP1 C64 (UniProt Q92667)", "log2 ratio of iodoacetamide-alkyne labeling": "inactive: 0.518"}, {"target": "USP9X C673 (UniProt Q93008)", "log2 ratio of iodoacetamide-alkyne labeling": "inactive: 0.212"}, {"target": "TOPBP1 C1166 (UniProt Q92547)", "log2 ratio of iodoacetamide-alkyne labeling": "inactive: 0.385"}, {"target": "UniProt Q96EY5_C33", "log2 ratio of iodoacetamide-alkyne labeling": "inactive: -0.0646"}, {"target": "NDRG1 C272 (UniProt Q92597)", "log2 ratio of iodoacetamide-alkyne labeling": "inactive: 0.208"}, {"target": "LPP C468 (UniProt Q93052)", "log2 ratio of iodoacetamide-alkyne labeling": "inactive: 0.118"}, {"target": "PDXP C91 (UniProt Q96GD0)", "log2 ratio of iodoacetamide-alkyne labeling": "inactive: 0.0378"}, {"target": "TAF15 C360 (UniProt Q92804)", "log2 ratio of iodoacetamide-alkyne labeling": "inactive: 0.0291"}, {"target": "GBF1 C1414 (UniProt Q92538)", "log2 ratio of iodoacetamide-alkyne labeling": "inactive: -0.0335"}, {"target": "RPE C23 (UniProt Q96AT9)", "log2 ratio of iodoacetamide-alkyne labeling": "inactive: 0.341"}, {"target": "DDX27 C259 (UniProt Q96GQ7)", "log2 ratio of iodoacetamide-alkyne labeling": "inactive: 0.192"}, {"target": "TUBGCP3 C18 (UniProt Q96CW5)", "log2 ratio of iodoacetamide-alkyne labeling": "inactive: 0.523"}, {"target": "TONSL C830 (UniProt Q96HA7)", "log2 ratio of iodoacetamide-alkyne labeling": "inactive: 0.444"}, {"target": "AKT1S1 C44 (UniProt Q96B36)", "log2 ratio of iodoacetamide-alkyne labeling": "inactive: 0.465"}, {"target": "HDAC2 C417 (UniProt Q92769)", "log2 ratio of iodoacetamide-alkyne labeling": "inactive: 0.126"}, {"target": "UniProt Q92841_C298", "log2 ratio of iodoacetamide-alkyne labeling": "inactive: 0.188"}, {"target": "ZNF428 C114 (UniProt Q96B54)", "log2 ratio of iodoacetamide-alkyne labeling": "inactive: 0.0848"}, {"target": "PDLIM5 C446 (UniProt Q96HC4)", "log2 ratio of iodoacetamide-alkyne labeling": "inactive: 0.0755"}, {"target": "APIP C147 (UniProt Q96GX9)", "log2 ratio of iodoacetamide-alkyne labeling": "inactive: -0.0469"}, {"target": "GBF1 C661 (UniProt Q92538)", "log2 ratio of iodoacetamide-alkyne labeling": "inactive: 0.209"}, {"target": "UniProt Q92841_C270", "log2 ratio of iodoacetamide-alkyne labeling": "inactive: 0.303"}, {"target": "UniProt Q92786_C300", "log2 ratio of iodoacetamide-alkyne labeling": "inactive: 0.486"}, {"target": "TBRG4 C370 (UniProt Q969Z0)", "log2 ratio of iodoacetamide-alkyne labeling": "inactive: -0.0476"}, {"target": "CCDC47 C214 (UniProt Q96A33)", "log2 ratio of iodoacetamide-alkyne labeling": "inactive: 0.446"}, {"target": "ZNF428 C96 (UniProt Q96B54)", "log2 ratio of iodoacetamide-alkyne labeling": "inactive: 0.191"}, {"target": "ISOC2 C84 (UniProt Q96AB3)", "log2 ratio of iodoacetamide-alkyne labeling": "inactive: 0.179"}, {"target": "HSPH1 C650 (UniProt Q92598)", "log2 ratio of iodoacetamide-alkyne labeling": "inactive: 0.025"}, {"target": "RPL36AL C15 (UniProt Q969Q0)", "log2 ratio of iodoacetamide-alkyne labeling": "inactive: -0.000384"}, {"target": "MRPL38 C290 (UniProt Q96DV4)", "log2 ratio of iodoacetamide-alkyne labeling": "inactive: -0.134"}, {"target": "UPF1 C531 (UniProt Q92900)", "log2 ratio of iodoacetamide-alkyne labeling": "inactive: -0.0182"}, {"target": "OTUD5 C519 (UniProt Q96G74)", "log2 ratio of iodoacetamide-alkyne labeling": "inactive: 0.384"}, {"target": "FLYWCH2 C132 (UniProt Q96CP2)", "log2 ratio of iodoacetamide-alkyne labeling": "inactive: 0.204"}, {"target": "ZNF592 C1221 (UniProt Q92610)", "log2 ratio of iodoacetamide-alkyne labeling": "inactive: 0.165"}, {"target": "PHF3 C1631 (UniProt Q92576)", "log2 ratio of iodoacetamide-alkyne labeling": "inactive: 0.733"}, {"target": "RABGGTA C354 (UniProt Q92696)", "log2 ratio of iodoacetamide-alkyne labeling": "inactive: 0.131"}, {"target": "TBRG4 C335 (UniProt Q969Z0)", "log2 ratio of iodoacetamide-alkyne labeling": "inactive: 0.436"}]}]}
